# Hit rate of the full screen: of about 330,000 compounds, about 7,700 (2.3%) were called active. Inconclusive means that the source gave no clear call. Such entries were picked first, then a sample of the others. Calls come from the whole dose curve; as a rule, active = well fitted inhibition curve with a large enough effect; inconclusive = small, poorly fitted or top-dose-only effect, or effect the other way; inactive = flat fitted curve, though single readings scatter. A potency beside an inconclusive call is a rough fit, not a confirmed value.
# Assay: qHTS screen for small molecules that inhibit ELG1-dependent DNA repair in human embryonic kidney (HEK293T) cells expressing luciferase-tagged ELG1; note: nearly all actives have a fitted effect of over 55% in size
# Conditions: HEK293T ELG1-luciferase reporter, luminescence, 16 h, DNA damage induced by 5-fluorouridine; activity change, negative = inhibition: at 46.1 µM (top of the series)
# In short: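 Step one: seed 2,000 cells per well. Step two: pin-transfer compound or DMSO alongside 5-fluorouridine. Step three: incubate 16 hr, 37 °C, 5% CO2. Step four: add ONE-Glo, wait 30 min, read luminescence.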
# % is set by controls: 0 for no effect and ±100 for the full control effect; potency is the fitted concentration of half-maximal effect.
SMILES,Potency,"activity change, negative = inhibition"
O=c1c2c([nH]c3ccccc13)C(=C1CCCC1)CC2,"inconclusive: 23.1 µM [inhibitor, partial curve, poor fit]",–
Cc1ccc(CNC(=O)c2nnn(CC(=O)Nc3cc(C)cc(C)c3)c2N)cc1,"inconclusive: 20.6 µM [activator, single point]",–
CC(C)NC(=O)c1cc(-c2ccc3c(c2)OCO3)on1,"inconclusive: 6.51 µM [activator, partial curve]",–
CC(C)(C)OC(=O)N/N=C/c1ccc(C(=O)O)cc1,"inconclusive: 18.4 µM [activator, single point]",–
Clc1ccccc1OCc1nc(-c2ccncc2)no1,"inconclusive: 10.3 µM [activator, partial curve]",–
CCOCC(=O)Nc1nc2ccc(OCC)cc2s1,"inconclusive: 10.3 µM [activator, partial curve]",–
Cc1nc(NC(=O)CN2CCCCC2)sc1C(=O)N(C)C,–,inconclusive: 20.4% [activator]
N#CNC(=Nc1cccc(F)c1)SCc1cccc(F)c1,inactive,–
O=C(O)CCN1C(=O)c2ccc(NC(=O)CSc3ccc(Cl)cc3)cc2C1=O,inactive,–
COc1ccc(C(=O)N/N=C/c2ccc(OC(=O)c3cccs3)cc2)cc1,"inconclusive: 18.4 µM [activator, single point]",–
Cc1ccc(-c2nnc(NC(=O)c3ccco3)o2)c(C)c1,"inconclusive: 16.4 µM [activator, partial curve]",–
CCOC(=O)c1sc(=NC(=O)c2ccccc2Br)n(C)c1C,"inconclusive: 8.2 µM [activator, partial curve]",–
Cc1cc(S(N)(=O)=O)c(N)c(S(N)(=O)=O)c1,"inconclusive: 29.1 µM [activator, single point]",–
CCN(CC(=O)Nc1ccccc1C(F)(F)F)C(=O)CN1C(=O)NC2(CCCCC2)C1=O,inactive,–
O=C(NCCCn1ccnc1)c1ccc(Cl)s1,inactive,–
COC(=O)c1cc(C(=O)N2CCN(c3cccc(C)c3C)CC2)cc([N+](=O)[O-])c1,"inconclusive: 9.2 µM [inhibitor, partial curve]",–
CN(Cc1ccccc1F)c1nc(-c2cccnc2)nc2ccccc12,"inconclusive: 18.3 µM [inhibitor, single point]",–
CCOC(=O)CSc1nc2c(sc3ccc([N+](=O)[O-])cc32)c(=O)n1Cc1ccco1,"inconclusive: 13 µM [inhibitor, partial curve]",–
O=C(NCCc1ccccc1Cl)C1CCN(S(=O)(=O)c2cccs2)CC1,"inconclusive: 29.1 µM [inhibitor, single point]",–
CC(=O)c1c(C)[nH]c(C(=O)OCC(=O)NCCc2ccc(F)cc2)c1C,active: 20.6 µM,–
Cc1cc(C)c(C#N)c(N2CCN(Cc3ccc4c(c3)OCO4)CC2)n1,"inconclusive: 2.06 µM [inhibitor, partial curve, poor fit]",–
C=CCn1c(SCc2csc(-c3ccc(Cl)cc3)n2)nnc1-c1ccccc1OC,"inconclusive: 29.1 µM [inhibitor, partial curve, poor fit]",–
CCCC[C@@H](CN[C@H](C)CNC)NCC1CCC(C(C)(C)C)CC1 (stereo partly specified),"inconclusive: 7.3 µM [inhibitor, partial curve]",–
CCCc1cc(NC(=O)COC(=O)c2ccc(O)cc2O)n(-c2ccccc2)n1,"inconclusive: 5.8 µM [inhibitor, single point]",–

# Molecules above containing a thiophene ring, fused or not:
SMILES,Potency,"activity change, negative = inhibition"
COc1ccc(C(=O)N/N=C/c2ccc(OC(=O)c3cccs3)cc2)cc1,"inconclusive: 18.4 µM [activator, single point]",–
O=C(NCCCn1ccnc1)c1ccc(Cl)s1,inactive,–
CCOC(=O)CSc1nc2c(sc3ccc([N+](=O)[O-])cc32)c(=O)n1Cc1ccco1,"inconclusive: 13 µM [inhibitor, partial curve]",–
O=C(NCCc1ccccc1Cl)C1CCN(S(=O)(=O)c2cccs2)CC1,"inconclusive: 29.1 µM [inhibitor, single point]",–

# The list continues.

SMILES,Potency,"activity change, negative = inhibition"
CC(C)(C)C1CCC(OC(=O)CN2CCOCC2)CC1 (stereo unspecified),"inconclusive: 14.6 µM [activator, partial curve]",–
O=C(NC(=S)Nc1ccc(S(=O)(=O)Nc2nccs2)cc1)c1ccc(Br)o1,inactive,–
COC(=O)[C@@H]1C[C@H]2CC[C@H](O)C[C@H]2N1Cc1ccc(Cl)cc1,inactive,–
COc1ccc(CNC(=O)Cn2nc([N+](=O)[O-])cc2C)cc1,inactive,–
O=C(/C=C/c1c(Cl)nc2ccccn12)N1CCN(c2ccccc2F)CC1,inactive,–
Cc1cc(C)cc(OCC(=O)OCCN2C(=O)c3ccccc3C2=O)c1,"inconclusive: 1.3 µM [inhibitor, partial curve, poor fit]",–
O=C(N/N=C/c1ccc2cccc(OCc3ccccc3)c2n1)c1ccc(Br)cc1,active: 16.4 µM,–
CC1Sc2ccc(S(=O)(=O)CCC(=O)N3CCN(c4cccc(Cl)c4)CC3)cc2NC1=O (stereo unspecified),active: 13 µM,–
O=S(=O)(NC1CCCC1)c1cc(F)ccc1F,"inconclusive: 20.6 µM [inhibitor, single point]",–
CCOC(=O)CN(C(=O)CNC(=O)c1ccco1)C(C(=O)NC1CCCCC1)c1cccc(OC)c1 (stereo unspecified),"inconclusive: 32.6 µM [activator, partial curve, poor fit]",–
COc1ccc(C)cc1NC(=O)C(CCS(C)(=O)=O)NC(C)=O (stereo unspecified),"inconclusive: 32.6 µM [activator, partial curve, poor fit]",–
CC(=O)c1ccc(N(CC(=O)NCCc2ccccc2)C(=O)c2csnn2)cc1,"inconclusive: 16.4 µM [activator, single point]",–
O=C(CSc1ccccc1F)NNC(=O)c1cncc(Br)c1,"inconclusive: 7.3 µM [activator, single point]",–
O=C(COC(=O)c1ccccc1O)NC12CC3CC(CC(C3)C1)C2,"inconclusive: 18.3 µM [activator, partial curve]",–
COc1ccc(NCc2nnc(SCC(=O)N3CCCc4ccccc43)o2)cc1,inactive,–
CC(=O)c1ccc(NC(=O)Nc2cccc3ccccc23)cc1,"inconclusive: 10.3 µM [activator, partial curve]",–
Cn1c(SCc2ccc(C(C)(C)C)cc2)nnc1C1COc2ccccc2O1 (stereo unspecified),inactive,–
COc1ccc(-c2nc(NC(=O)CCNC(=O)c3ccco3)sc2C)cc1,"inconclusive: 20.6 µM [inhibitor, partial curve]",–
COc1ccc(C(=O)Nc2nncs2)c(OC)c1,"inconclusive: 20.6 µM [activator, partial curve]",–
O=C(CN1CCOCC1)Nc1cc(C(F)(F)F)ccc1Cl,"inconclusive: 14.6 µM [inhibitor, single point]",–
O=C(Nc1ccc(CN2CCCCC2)cc1)c1sc2ccccc2c1Cl,"inconclusive: 29.1 µM [activator, single point]",–
CCCn1c(N2CCN(C(=O)Nc3ccc(Cl)cc3)CC2)nc2ccccc21,"inconclusive: 29.1 µM [inhibitor, partial curve, poor fit]",–
COC(=O)/C(=C1/Oc2cc(C)oc(=O)c2S1)C(F)(F)F,"inconclusive: 29.1 µM [inhibitor, single point]",–
CCN1CCCC1CNC(=O)CCc1nc(-c2ccc(C)cc2)no1 (stereo unspecified),inactive,–

SMILES,Potency,"activity change, negative = inhibition"
S=c1[nH]nc(C2CCCCC2)n1/N=C/c1ccccc1,inactive,–
O=c1c(Cc2ccc(Cl)cc2Cl)c(O)ccn1CCCN1CCOCC1,inactive,–
O=C(COc1ccc(-c2ccccc2)cc1)N1CCN(S(=O)(=O)Cc2ccccc2)CC1,"inconclusive: 2.31 µM [inhibitor, full curve, poor fit]",–
COC(=O)c1cc(S(=O)(=O)N2CCCCCC2)cn1C,"inconclusive: 14.6 µM [activator, partial curve, poor fit]",–
Fc1ccccc1CSc1nnc(-c2cnccn2)n1Cc1ccco1,"inconclusive: 25.9 µM [activator, single point]",–
CCOC(=O)C1=C(C)NC(=O)NC1c1ccc(OC)c(Cl)c1 (stereo unspecified),inactive,–
COc1ccc2nc(C(C)O)[nH]c2c1 (stereo unspecified),inactive,–
CCSc1nnc(NC(=O)c2ccccc2C)s1,"inconclusive: 18.3 µM [activator, partial curve]",–
Cc1cc(NC(=O)CSc2nc3ccccc3c(=O)n2-c2ccccc2)no1,"inconclusive: 9.2 µM [activator, partial curve]",–
CN(C)S(=O)(=O)c1cccc(NC(=O)c2cc(-c3cccs3)nc3ccccc23)c1,active: 7.31 µM,–
CCOc1ccccc1N1CCN(C(=S)NCc2ccccc2)CC1,"inconclusive: 5.8 µM [inhibitor, partial curve, poor fit]",–
Cc1ccc([N+](=O)[O-])cc1NC(=O)c1c(-c2ccccc2)noc1C,inactive,–
O=C1/C(=C/c2cccnc2)Cc2ccc(Cl)cc21,inactive,–
COc1cccc2sc(Nc3nnc(-c4cccs4)o3)nc12,"inconclusive: 9.2 µM [activator, partial curve]",–
Oc1cccc(C2c3[nH]c4ccccc4c3CCN2Cc2ccc3c(c2)CCO3)c1 (stereo unspecified),"inconclusive: 23.1 µM [inhibitor, partial curve, poor fit]",–
CCc1ccc(N(C(=O)c2snc(C(N)=O)c2N)C(C(=O)NCC2CCCO2)c2cccs2)cc1 (stereo unspecified),"inconclusive: 18.3 µM [activator, single point]",–
Cc1ccc2oc3c(c(=O)c2c1)C(c1cccc(Cl)c1)N(CCCN1CCOCC1)C3=O (stereo unspecified),active: 10.3 µM,–
Cc1onc(-c2ccccc2)c1C(=O)Oc1cccnc1,inactive,–
CC(=O)c1cc2c(cc1NC(=O)c1cc(C)nn1-c1ccccc1)OCO2,inactive,–
O=C(CSc1nc(C(F)(F)F)cc(=O)[nH]1)Nc1cccc2ccccc12,inactive,–
Cc1cc(/C=N/n2cnnc2)c(C)n1-c1ccc(OCc2ccc(Cl)cc2Cl)cc1,"inconclusive: 6.51 µM [inhibitor, single point]",–
CN(C)c1ccc(N=Nc2ccccc2Br)cc1,"inconclusive: 2.59 µM [activator, partial curve]",–
Cn1c(SCC(=O)NC2CC2)nnc1-c1cccs1,"inconclusive: 3.66 µM [activator, full curve, poor fit]",–

# Reference: PubChem BioAssay AID504467 (National Center for Advancing Translational Sciences (NCATS), 2011)
